PubChem BioAssay AID1259405, NCATS | 2018
This is a random part of about 50,000 reagents tested. About 4,000 of them (8%) were called active. 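Mouse siRNA library applied to hamster cells; one well for each siRNA.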 The numbers tell different reagents against one gene apart.

Screen: 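Mouse-designed siRNAs used to find CHO productivity engineering targets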 (primary screen)
System: Chinese hamster CHO-K1 ovary cells with stable secreted eGFP expression
Reagents: single siRNA against mouse genes, 0.8 pmol siRNA per well (2 µl of 400 nM stock)
Timing: 3 days
Measured: 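Per-well intracellular GFP measured by laser scanning cytometry, plus viability from ATP luminescence, each relative to plate median of non-targeting control wells, in %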
Direction: GFP, % of control: higher = more GFP per well, higher productivity; viability (ATP), % of control: higher = more viable cells (more ATP)
Active means: 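a knock-down is called active if GFP reaches 120% or more of non-targeting control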

| Target gene | reagent | GFP, % of control | viability (ATP), % of control | Outcome |
| --- | --- | --- | --- | --- |
| Or12k5 | 1 | 149 | 62.1 | active |
| Or12k5 | 2 | 77.2 | 43.3 | inactive |
| Or12k5 | 3 | 48.9 | 62 | inactive |
| Paf1 | 1 | 46.3 | 71.8 | inactive |
| Paf1 | 2 | 116 | 77.9 | inactive |
| Paf1 | 3 | 131 | 120 | active |
| Adgrg1 | 1 | 55.2 | 69.9 | inactive |
| Adgrg1 | 2 | 80.6 | 65.5 | inactive |
| Adgrg1 | 3 | 75.7 | 67.5 | inactive |
| Zfp423 | 1 | 57.1 | 51.8 | inactive |
| Zfp423 | 2 | 61.9 | 66.4 | inactive |
| Zfp423 | 3 | 33.1 | 50.2 | inactive |
| Calhm2 | 1 | 85.8 | 92.2 | inactive |
| Calhm2 | 2 | 67.2 | 71.9 | inactive |
| Calhm2 | 3 | 87.4 | 66.5 | inactive |
| Mest | 1 | 54.9 | 71.5 | inactive |
| Mest | 2 | 76.2 | 75.6 | inactive |
| Mest | 3 | 54.5 | 52.4 | inactive |
| Nbl1 | 1 | 59.2 | 73.7 | inactive |
| Nbl1 | 2 | 80.9 | 85.4 | inactive |
| Nbl1 | 3 | 45.5 | 44.2 | inactive |
| Dusp14 | 1 | 79.2 | 92.4 | inactive |
| Dusp14 | 2 | 82.2 | 78 | inactive |
| 4933402J07Rik | 1 | 152 | 71.2 | active |
| 4933402J07Rik | 2 | 95.2 | 111 | inactive |
| 4933402J07Rik | 3 | 169 | 128 | active |
| 4931429L15Rik | 1 | 42.8 | 58.5 | inactive |
| 4931429L15Rik | 2 | 43.8 | 29.9 | inactive |
| 4931429L15Rik | 3 | 42 | 52 | inactive |
| Gng10 | 1 | 118 | 87.5 | inactive |
| Gng10 | 2 | 91.2 | 84 | inactive |
| Gng10 | 3 | 27.7 | 33.8 | inactive |
| Pdcd1 | 1 | 86.4 | 68.4 | inactive |
| Pdcd1 | 2 | 63.1 | 44.4 | inactive |
| Pdcd1 | 3 | 63.6 | 92.3 | inactive |
| Pkd1l3 | 1 | 114 | 86.8 | inactive |
| Pkd1l3 | 2 | 107 | 75.6 | inactive |
| Pkd1l3 | 3 | 82.3 | 77.3 | inactive |
| Tbcb | 1 | 73.1 | 101 | inactive |
| Tbcb | 2 | 83.7 | 81.2 | inactive |
| Tbcb | 3 | 114 | 116 | inactive |
| Atp5mc2 | 1 | 65.6 | 77.1 | inactive |
| Atp5mc2 | 2 | 68.8 | 99.2 | inactive |
| Atp5mc2 | 3 | 69.8 | 66 | inactive |
| Elane | 1 | 122 | 96.6 | active |
| Elane | 2 | 66.5 | 74.7 | inactive |
| Elane | 3 | 61.1 | 45.7 | inactive |
| Prl8a2 | 1 | 76.9 | 57.4 | inactive |
| Prl8a2 | 2 | 60.2 | 49.5 | inactive |
| Prl8a2 | 3 | 21.8 | 42.7 | inactive |
| Acsm5 | 1 | 60.2 | 43.6 | inactive |
| Acsm5 | 2 | 67.1 | 73.8 | inactive |
| Acsm5 | 3 | 56.8 | 55.3 | inactive |
| Or8g51 | 1 | 122 | 77.8 | active |
| Or8g51 | 2 | 83.1 | 71.5 | inactive |
| Or8g51 | 3 | 149 | 82.5 | active |
| Frat1 | 1 | 67.6 | 76.4 | inactive |
| Frat1 | 2 | 90.4 | 82.7 | inactive |
| Frat1 | 3 | 84.9 | 87.5 | inactive |
| Or4c15b | 1 | 86.7 | 87.6 | inactive |
| Or4c15b | 2 | 89.3 | 75.8 | inactive |
| Or4c15b | 3 | 56.2 | 74.2 | inactive |
| Epo | 1 | 62.1 | 71.6 | inactive |
| Epo | 2 | 97.5 | 88.7 | inactive |
| Epo | 3 | 131 | 123 | active |
| Mfap4 | 1 | 68.3 | 117 | inactive |
| Mfap4 | 2 | 62.4 | 65.7 | inactive |
| Ncln | 1 | 131 | 83.4 | active |
| Ncln | 2 | 140 | 24.3 | active |
| Ncln | 3 | 71.7 | 78.2 | inactive |
| Hgd | 1 | 66.7 | 62.5 | inactive |
| Hgd | 2 | 81.1 | 55.2 | inactive |
| Hgd | 3 | 66.7 | 71.2 | inactive |
| Pcca | 1 | 80.8 | 65 | inactive |
| Pcca | 2 | 113 | 75.1 | inactive |
| Pcca | 3 | 98.9 | 103 | inactive |
| Tob1 | 1 | 65.5 | 88 | inactive |
| Tob1 | 2 | 108 | 114 | inactive |
| Tob1 | 3 | 111 | 142 | inactive |
| Map3k14 | 1 | 79.5 | 93.5 | inactive |
| Aoc1 | 1 | 80.6 | 81 | inactive |
| Aoc1 | 2 | 90.5 | 49.8 | inactive |
| Aoc1 | 3 | 49.8 | 57.6 | inactive |
| Slc35a3 | 1 | 99.8 | 124 | inactive |
| Slc35a3 | 2 | 72.5 | 89.6 | inactive |
| Slc35a3 | 3 | 81.4 | 83.7 | inactive |

Targets above whose target name begins with C or c:
| Target gene | reagent | GFP, % of control | viability (ATP), % of control | Outcome |
| --- | --- | --- | --- | --- |
| Calhm2 | 1 | 85.8 | 92.2 | inactive |
| Calhm2 | 2 | 67.2 | 71.9 | inactive |
| Calhm2 | 3 | 87.4 | 66.5 | inactive |
